Structures can show the parent of a compound that is named as a salt. This is one part of the list. Plates or batches differ in their baseline, so values are only roughly comparable.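 A clonal Drosophila S2 line expresses Smoothened bearing circularly permuted GFP in its cytoplasmic tail; Hh-driven phosphorylation opens an inhibitory loop, making it fluoresce. Flow cytometry measured per-cell fluorescence, normalized to Hh-stimulated untreated cells. Hits were inhibitor groups with shared pathway targets that consistently shifted fluorescence, not individual compounds.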
Tested on: Drosophila S2 cl14 SmoIP sensor cells
Test: normalized SmoIP GFP fluorescence (untreated unstimulated = 0%, untreated Hh-stimulated = 100%); higher = more Smo activation sensor fluorescence
Conditions: compound concentration: 15 uM, 24 h
[1] = stimulation: Hh conditioned medium (+Hh)
[2] = stimulation: mock conditioned medium (-Hh)

SMILES | normalized SmoIP GFP fluorescence [1] [%] | normalized SmoIP GFP fluorescence [2] [%]
CC(=O)Nc1nc2c(Oc3cc(-c4ccc(C(F)(F)F)cc4)ncn3)cccc2s1 | 131 | 9.79
CN(C)CC/C=C1/c2ccccc2Sc2ccc(Cl)cc21 [Chlorprothixene] | 154 | 31.7
CCN(CC)CC#CCOC(=O)C(O)(c1ccccc1)C1CCCCC1 (stereo not drawn) [oxybutynin-chloride] | 142 | 18.6
CCCC(=O)Nc1ccc(OCC(O)CNC(C)C)c(C(C)=O)c1 (stereo not drawn) [acebutolol-hcl] | 113 | -1.23
FC(F)(F)c1ccc(/C=C/c2nc(COc3ccc(CCCCn4ccnn4)cc3)co2)cc1 [Mubritinib-TAK-165] | 112 | 95.4
COc1cc(NC(=O)c2ccc(-c3ccc(Cl)cc3)o2)cc(OC)c1 | 141 | 33.9
CN(C)CCC=C1c2ccccc2CCc2ccccc21 [amitriptyline-hydrochloride] | 142 | 18.3
O=C(Nc1c(Cl)cncc1Cl)c1ccc(OC(F)F)c(OCC2CC2)c1 [Roflumilast(Daxas)] | 140 | -15.6
CN1CC2c3ccccc3Oc3ccc(Cl)cc3C2C1 (stereo not drawn) [Asenapine] | 162 | 53.9
CC(C)N(CCC(=O)c1ccc2ccccc2c1)Cc1ccccc1 | 256 | 31.5
c1cnc2cc3c(cc2n1)[C@@H]1CNC[C@H]3C1 [Varenicline-tartrate] | 132 | 0.274
COc1ccccc1N1CCN(CCCNc2cc(=O)n(C)c(=O)n2C)CC1 [urapidil-hydrochloride] | 129 | -10.8
CC(C)(C#N)c1cc(Cn2cncn2)cc(C(C)(C)C#N)c1 [Anastrozole] | 138 | 0.489
Cn1c(=O)c2[nH]cnc2n(C)c1=O [Aminophylline(Truphylline)] | 141 | -5.22
C=C1C(=O)O[C@@H]2/C=C(\C)CC/C=C(\C)CC[C@@H]12 [Costunolide] | 82.6 | 30
C[N+]1(C)CCC(=C(c2ccccc2)c2ccccc2)CC1 [diphemanil-methylsulfate] | 114 | -4.13
COc1ccc(CNC(=O)Nc2ncc([N+](=O)[O-])s2)cc1 | 176 | -6.79

In the list so far, 5 contain a carbonyl joined to an NH by a bond outside any ring.
SMILES | normalized SmoIP GFP fluorescence [1] [%] | normalized SmoIP GFP fluorescence [2] [%]
CC(=O)Nc1nc2c(Oc3cc(-c4ccc(C(F)(F)F)cc4)ncn3)cccc2s1 | 131 | 9.79
CCCC(=O)Nc1ccc(OCC(O)CNC(C)C)c(C(C)=O)c1 (stereo not drawn) [acebutolol-hcl] | 113 | -1.23
COc1cc(NC(=O)c2ccc(-c3ccc(Cl)cc3)o2)cc(OC)c1 | 141 | 33.9
O=C(Nc1c(Cl)cncc1Cl)c1ccc(OC(F)F)c(OCC2CC2)c1 [Roflumilast(Daxas)] | 140 | -15.6
COc1ccc(CNC(=O)Nc2ncc([N+](=O)[O-])s2)cc1 | 176 | -6.79

More structures follow.

SMILES | normalized SmoIP GFP fluorescence [1] [%] | normalized SmoIP GFP fluorescence [2] [%]
COc1cc2nc(N3CCCN(C)CC3)nc(NC3CCN(Cc4ccccc4)CC3)c2cc1OC | 155 | 35
C[C@H](NCc1ccc(OCc2cccc(F)c2)cc1)C(N)=O [Safinamide-mesilate] | 142 | 18.6
CN1CCC(=C2c3ccccc3CC(=O)c3sccc32)CC1 [ketotifen-fumarate-zaditor] | 147 | 11.6
O=C1[C@H](Cc2ccc(O)cc2)N2C(=O)CCN(C(=O)NCc3ccccc3)[C@H]2CN1Cc1cccc2ccccc12 | 199 | 32.9
N#Cc1ccc(C(c2ccc(C#N)cc2)n2cncn2)cc1 [Letrozole] | 131 | 1.35
CNC(=O)c1ccc2cc([C@@]3(O)CCn4cncc43)ccc2c1 | 164 | 24.6
CC(C)(C)NS(=O)(=O)c1cncc(-c2cc(F)c3nc(N)nn3c2)c1 | 108 | -1.74
COCC(=O)NC/C=C/c1ccc2ncnc(Nc3ccc(Oc4ccc(C)nc4)c(C)c3)c2c1 | 93.8 | 53.9
C[C@@H]1CCN(C(=O)CC#N)C[C@@H]1N(C)c1ncnc2[nH]ccc12 | 122 | 0.815
CC(=O)O[C@]1(C(C)=O)CC[C@H]2[C@@H]3C[C@H](C)C4=CC(=O)CC[C@]4(C)[C@H]3CC[C@@]21C [Medroxyprogesterone-acetate] | 156 | 9.71
CN(C)CCc1c[nH]c2ccc(Cn3cncn3)cc12 [Rizatriptan-Benzoate(Maxalt)] | 129 | -2.64
Cc1c(CN2CCN(C(=O)[C@H](C)O)CC2)sc2c(N3CCOCC3)nc(-c3cnc(N)nc3)nc12 | 57.1 | -8.59
Nc1ncnc2c1c(-c1cnc3[nH]ccc3c1)nn2C1CCCC1 | 37.3 | 4.48
CC(=O)[C@H]1CC[C@H]2[C@@H]3CC=C4C[C@@H](O)CC[C@]4(C)[C@H]3CC[C@]12C [pregnenolone] | 157 | -11.7
COc1cc2c(cc1OC)CC(=O)N(CCCN(C)C[C@@H]1Cc3cc(OC)c(OC)cc31)CC2 [ivabradine-hcl-procoralan] | 123 | -4.35
CCc1ccc(/C=C2/SC(=S)NC2=O)cc1 | 135 | 5.47
O=C(NCCS(=O)(=O)c1ccc(C(F)(F)F)cn1)c1ccc(Cl)cc1 | 127 | -7.15

From the supplement of paper PMC5662767
